Data published in article PMC10238197, “Deafness‐Associated ADGRV1 Mutation Impairs USH2A Stability through Improper Phosphorylation of WHRN and WDSUB1 Recruitment” (Advanced Science, 2023).
Where a chain is given by its changes, count along the chain named. Results are given in words; binding and its absence hold for the method and conditions named. In cells and extracts the contact can be indirect. Some entries that bind do so weakly or less than the wild type. Sequences can lack the tags named with a protein.

Sequences of proteins named here, by UniProt entry; tags and fusion partners are left off. Residues count along the entry.
UniProt Q8VHN7, residues 4333-6298: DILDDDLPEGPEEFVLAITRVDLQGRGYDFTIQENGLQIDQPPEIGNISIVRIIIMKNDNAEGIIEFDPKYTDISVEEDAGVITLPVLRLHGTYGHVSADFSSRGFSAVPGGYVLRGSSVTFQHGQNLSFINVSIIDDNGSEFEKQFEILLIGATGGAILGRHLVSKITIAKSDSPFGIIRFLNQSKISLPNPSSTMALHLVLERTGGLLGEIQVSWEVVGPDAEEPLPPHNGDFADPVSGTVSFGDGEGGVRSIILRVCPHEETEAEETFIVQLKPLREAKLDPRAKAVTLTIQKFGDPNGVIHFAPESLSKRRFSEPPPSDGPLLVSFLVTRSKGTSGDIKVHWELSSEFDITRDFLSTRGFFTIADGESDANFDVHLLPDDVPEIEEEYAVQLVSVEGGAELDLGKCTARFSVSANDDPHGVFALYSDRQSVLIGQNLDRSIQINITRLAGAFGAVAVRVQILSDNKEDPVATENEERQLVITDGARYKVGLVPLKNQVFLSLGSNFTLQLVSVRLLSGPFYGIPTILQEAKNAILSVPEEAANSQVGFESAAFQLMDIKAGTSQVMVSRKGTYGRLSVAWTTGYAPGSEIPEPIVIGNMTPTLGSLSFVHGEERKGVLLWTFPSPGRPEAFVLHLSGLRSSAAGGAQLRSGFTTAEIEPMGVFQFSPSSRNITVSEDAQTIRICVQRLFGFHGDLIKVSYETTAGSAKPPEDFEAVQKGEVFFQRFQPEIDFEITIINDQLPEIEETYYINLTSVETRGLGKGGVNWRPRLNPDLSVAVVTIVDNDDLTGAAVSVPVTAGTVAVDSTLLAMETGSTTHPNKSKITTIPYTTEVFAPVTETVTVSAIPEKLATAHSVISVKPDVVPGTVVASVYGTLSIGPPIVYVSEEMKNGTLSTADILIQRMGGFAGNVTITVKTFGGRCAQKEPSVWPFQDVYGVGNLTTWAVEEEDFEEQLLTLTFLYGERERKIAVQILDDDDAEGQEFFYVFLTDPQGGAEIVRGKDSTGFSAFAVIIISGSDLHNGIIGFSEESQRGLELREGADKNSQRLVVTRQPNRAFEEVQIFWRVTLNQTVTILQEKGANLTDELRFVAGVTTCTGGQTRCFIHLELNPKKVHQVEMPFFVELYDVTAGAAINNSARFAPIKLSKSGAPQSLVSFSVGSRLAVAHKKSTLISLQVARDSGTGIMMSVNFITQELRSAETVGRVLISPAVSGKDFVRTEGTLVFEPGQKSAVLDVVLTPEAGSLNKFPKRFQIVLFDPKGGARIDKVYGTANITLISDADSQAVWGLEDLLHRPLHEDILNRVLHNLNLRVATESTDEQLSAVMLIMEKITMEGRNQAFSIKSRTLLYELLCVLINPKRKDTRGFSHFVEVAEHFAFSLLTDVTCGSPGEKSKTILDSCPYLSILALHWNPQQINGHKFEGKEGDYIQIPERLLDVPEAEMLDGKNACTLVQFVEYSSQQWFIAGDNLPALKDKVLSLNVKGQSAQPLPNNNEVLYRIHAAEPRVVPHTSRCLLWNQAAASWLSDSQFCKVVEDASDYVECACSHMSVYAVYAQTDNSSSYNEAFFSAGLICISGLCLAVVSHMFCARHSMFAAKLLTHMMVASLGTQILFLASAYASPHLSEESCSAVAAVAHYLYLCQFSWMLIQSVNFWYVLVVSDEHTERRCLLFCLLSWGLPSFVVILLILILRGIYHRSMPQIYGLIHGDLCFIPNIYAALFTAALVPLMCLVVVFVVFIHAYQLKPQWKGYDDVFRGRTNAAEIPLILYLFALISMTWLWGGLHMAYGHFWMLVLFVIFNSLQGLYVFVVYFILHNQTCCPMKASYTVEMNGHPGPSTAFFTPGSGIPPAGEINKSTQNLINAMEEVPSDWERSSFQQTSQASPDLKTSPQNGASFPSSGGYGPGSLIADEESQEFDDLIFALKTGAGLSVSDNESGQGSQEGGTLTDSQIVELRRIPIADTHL

Tests used:
Assay in all cases: FRET or BRET; intermolecular FlAsH-BRET saturation in HEK293 cells: fixed amount of WHRN-Nluc, increasing ADGRV1-FlAsH or USH2A-FlAsH; 2.5 µM FlAsH-EDT2, 5 µM coelenterazine-h; net BRET Em530/Em485
[1] = molecular target: T1, WHRN-Nluc (L-Z2) K348A (mouse) (UniProt Q80VW5)
T1 sequence: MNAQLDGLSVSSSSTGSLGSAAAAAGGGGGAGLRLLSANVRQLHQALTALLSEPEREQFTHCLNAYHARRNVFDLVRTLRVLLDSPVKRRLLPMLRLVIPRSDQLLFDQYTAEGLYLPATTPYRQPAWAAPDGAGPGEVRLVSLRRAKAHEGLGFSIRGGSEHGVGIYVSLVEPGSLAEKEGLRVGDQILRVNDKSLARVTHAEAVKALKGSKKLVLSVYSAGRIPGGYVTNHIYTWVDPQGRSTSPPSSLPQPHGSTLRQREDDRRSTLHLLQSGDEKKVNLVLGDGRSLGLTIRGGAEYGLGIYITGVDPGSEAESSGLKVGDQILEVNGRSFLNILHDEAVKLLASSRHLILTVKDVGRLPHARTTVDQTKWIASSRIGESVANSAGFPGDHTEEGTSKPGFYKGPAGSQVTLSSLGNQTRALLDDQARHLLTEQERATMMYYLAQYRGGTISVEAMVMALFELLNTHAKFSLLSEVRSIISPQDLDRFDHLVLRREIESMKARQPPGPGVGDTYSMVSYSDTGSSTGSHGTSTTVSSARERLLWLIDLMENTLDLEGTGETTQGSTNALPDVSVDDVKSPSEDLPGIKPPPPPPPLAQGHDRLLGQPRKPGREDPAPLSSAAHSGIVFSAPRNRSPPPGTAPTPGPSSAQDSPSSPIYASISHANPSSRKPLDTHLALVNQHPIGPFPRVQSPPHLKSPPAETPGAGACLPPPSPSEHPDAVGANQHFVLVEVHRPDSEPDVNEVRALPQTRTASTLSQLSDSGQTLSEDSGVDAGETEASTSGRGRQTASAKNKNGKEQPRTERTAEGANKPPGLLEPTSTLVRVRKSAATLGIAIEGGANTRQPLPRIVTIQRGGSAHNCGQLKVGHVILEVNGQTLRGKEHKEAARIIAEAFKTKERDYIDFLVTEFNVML

[2] = molecular target: T2, WHRN-Nluc (L-Z2) Y301A (mouse) (UniProt Q80VW5)
T2 sequence: T1 sequence with Y301A, A348K

[3] = molecular target: T3, WHRN-Nluc Z2-L (mouse) (UniProt Q80VW5)
T3 sequence: T1 sequence with A348K

Measured: binding

ADGRV1-ICL3-FlAsH (from UniProt Q8VHN7 4333-6298) (receptor)
binds: [1] | [2] | [3]
